Data published in PubChem BioAssay AID540303 (National Center for Advancing Translational Sciences (NCATS), 2011).
The whole screen tested about 330,000 compounds, of which about 1,000 (0.3%) were called active. This list was built around the results that the source calls inconclusive (neither active nor inactive); the mix of calls is not that of the screen. Calls come from the whole dose curve; as a rule, active = well fitted inhibition curve with a large enough effect; inconclusive = small, poorly fitted or top-dose-only effect; inactive = no such curve, though single readings can be large or run the other way; tested in mouse RAW 264.7 cells. Potencies beside an inconclusive call are fits to weak or partial responses and may not hold up.

assay: qHTS for Inhibitors of Cell Surface uPA Generation; conditions: cell surface uPA generation assay; series mostly up to 38.3 µM; note: nearly all actives have a fitted effect of over 55% in size
In short: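 RAW 264.7 cells (4000/well) were plated overnight at 37 C and then given compounds in a 1:5 series (up to 38.3 uM final) plus reagent for 24 h. Intracellular ATP was measured by ATP-Lite luminescence and stays elevated when uPA-dependent LF entry is blocked.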
Potency is the fitted concentration of half-maximal effect.

SMILES | Potency
O=C(NC1CCCC1)c1ccc(CS(=O)(=O)Cc2ccccc2F)o1 | inconclusive: 8.91 µM [inhibitor, partial curve, poor fit]
O=C(C[n+]1cccc(Br)c1)c1ccc(-c2ccccc2)cc1 | inconclusive: 11.2 µM [inhibitor, single point]
CCOc1ccc(S(=O)(=O)N2CCN(C(=O)COc3ccc(Br)cc3)CC2)cc1 | inconclusive: 10 µM [inhibitor, single point]
CC(Oc1ccccc1)C(=O)NC1CCSc2ccccc21 (stereo not drawn) | inconclusive: 12.6 µM [inhibitor, single point]
COc1ccc(NCc2nnc(-c3ccccc3)o2)cc1 | inconclusive: 12.6 µM [inhibitor, single point]
COc1ccc(-c2nc(Cn3c(SCc4ccc(C)cc4)nc4ccncc43)c(C)o2)cc1OC | active: 8.91 µM
CC(=O)c1ccc(NC(=O)c2onc(C)c2Cl)cc1 | inconclusive: 1 µM [inhibitor, partial curve, poor fit]
CCN1CCN(Cc2ccc(NC(=O)Nc3ccccc3Cl)cc2)CC1 | active: 10 µM
O=S(=O)(c1ccc(F)cc1)N1CCc2ccccc21 | inconclusive: 8.91 µM [inhibitor, partial curve, poor fit]
COc1ccc(C(=O)O/N=C(\N)c2ccc(OC)c(OC)c2)c(OC)c1 | inconclusive: 11.2 µM [inhibitor, single point]
Clc1cccc(Cl)c1CSc1nnc([C@@H]2CCCN2)o1 | inactive
c1coc(-c2nn3c(-c4ccco4)nnc3s2)c1 | inactive
COc1ccc(OC)c(CCNC(=O)C(C)n2nc(C)c3c(C)n(-c4ccc(C)cc4)nc3c2=O)c1 (stereo not drawn) | inconclusive: 14.1 µM [inhibitor, partial curve, poor fit]
C/C(CCC12CC3CC(CC(C3)C1)C2)=N\NC(N)=S | inconclusive: 0.398 µM [inhibitor, full curve, poor fit]
COc1ccccc1NC1=C(NC(C)=O)C(=O)c2ccccc2C1=O | active: 12.6 µM
CC(C)c1ccc(/C=N/NC(=O)c2nnn(-c3nonc3N)c2CN2CCOCC2)cc1 | inconclusive: 8.91 µM [inhibitor, single point]
N#C/C(=C\c1cccc(OCC(=O)O)c1)c1nc2ccccc2[nH]1 | inactive
Cc1ccc(C(NC(=O)N2CCCCC2)=C(Cl)Cl)cc1F | inconclusive: 8.91 µM [inhibitor, partial curve]
COc1ccccc1N1C(=O)C2C(c3ccccc3F)NN(C(=O)c3ccc(C)cc3)C2C1=O (stereo not drawn) | inconclusive: 17.8 µM [inhibitor, partial curve, poor fit]
COc1cc(C)c(CN2CCC(Oc3ccc(C(=O)N4CCCC4)cc3)CC2)cc1C | inconclusive: 6.31 µM [inhibitor, partial curve, poor fit]
C=CCNC(=S)/N=c1/ccccn1Cc1ccccc1 | inconclusive: 0.447 µM [inhibitor, full curve, poor fit]
CN(C(=S)NCCN1CCOCC1)C(c1ccccc1)c1ccccc1 | inconclusive: 10 µM [inhibitor, single point]

Random excerpt: 4 records from the list.
SMILES | Potency
O=C(NC1CCCC1)c1ccc(CS(=O)(=O)Cc2ccccc2F)o1 | inconclusive: 8.91 µM [inhibitor, partial curve, poor fit]
O=S(=O)(c1ccc(F)cc1)N1CCc2ccccc21 | inconclusive: 8.91 µM [inhibitor, partial curve, poor fit]
CC(=O)c1ccc(NC(=O)c2onc(C)c2Cl)cc1 | inconclusive: 1 µM [inhibitor, partial curve, poor fit]
C=CCNC(=S)/N=c1/ccccn1Cc1ccccc1 | inconclusive: 0.447 µM [inhibitor, full curve, poor fit]

Following part.

SMILES | Potency
Cc1ccc(OCCC(=O)Nc2ccc(F)c(Cl)c2)cc1 | inactive
COc1cc(OC)c2c(-c3ccccc3)cc(=O)oc2c1 | inactive
CCN1C(=O)/C(=C\c2ccc(-c3ccc([N+](=O)[O-])cc3OC)o2)SC1=Nc1cccc(C(=O)O)c1 | inconclusive: 2.82 µM [inhibitor, single point]
COc1ccc(NS(=O)(=O)c2cc(NC(=O)c3ccc(=O)[nH]n3)ccc2C)cc1 | inconclusive: 8.91 µM [inhibitor, partial curve, poor fit]
COCc1cc(=O)[nH]c(Nc2nc3ccc(C)cc3o2)n1 | inactive
O=S(=O)(Nc1cccc(-c2ccc(N3CCOCC3)nn2)c1)c1ccc(Cl)c(Cl)c1 | inconclusive: 3.98 µM [inhibitor, partial curve]
O=C(Oc1ccc(Nc2ncnc3ccccc23)cc1)c1cccnc1 | inconclusive: 22.4 µM [inhibitor, single point]
Fc1ccccc1-c1cc2cc3c(cc2cn1)OCO3 | inconclusive: 11.2 µM [inhibitor, partial curve, poor fit]
NC(=O)[C@H]1CC2(CC(c3cccc(NC(=O)COc4ccc(Cl)cc4)c3)=NO2)CN1C(=O)c1ccccc1C(=O)c1ccccc1 (stereo partly drawn) | inconclusive: 28.2 µM [inhibitor, single point]
O=C1C=CC[C@H](/C=C/C[C@@H](O)C[C@H](O)CCc2ccccc2)O1 | active: 10 µM
CN(C(=O)CN1C(=O)NC(c2ccccc2)(c2ccccc2)C1=O)C1CCS(=O)(=O)C1 (stereo not drawn) | inconclusive: 0.501 µM [inhibitor, full curve, poor fit]
Nc1ccc(C#Cc2c(-c3ccsc3)oc3ccc(N4CCOCC4)cc23)cc1 | inconclusive: 10 µM [inhibitor, partial curve, poor fit]
CS(=O)(=O)c1sc(C#N)c2c1C(=O)CC(c1ccccc1)C2 (stereo not drawn) | active: 8.91 µM
CN(C)C1=NC[C@H](Cc2ccccc2)N1CCCC1CCCC1 | active: 3.98 µM
Cc1ccc(C(=O)Nc2nc3ccccc3c(=O)s2)cc1 | inconclusive: 7.08 µM [inhibitor, partial curve]
CC(=O)c1ccc(NC(=O)CSc2nnc(C3CC3)n2C2CC2)cc1 | inactive
COc1cc(C(=O)NC2CCN(C)CC2)ccc1Nc1ncc2c(n1)N(CCc1ccccc1)CCC(=O)N2C | inconclusive: 10 µM [inhibitor, partial curve, poor fit]
Cc1ccc(N(C(=O)c2snc(C(N)=O)c2N)C(CC(C)C)C(=O)NC2CCCC2)cc1 (stereo not drawn) | inactive
OC1COCOC1C(O)C1OCOCC1O (stereo not drawn) | inactive
Cc1noc(NS(=O)(=O)c2ccc(N/C=C\C(=O)c3ccc(Br)cc3)cc2)c1C | inactive
COc1ccc2c(c1)c(=O)c(C(=O)c1ccccc1)cn2Cc1ccc(C)cc1 | inconclusive: 28.2 µM [inhibitor, single point]
